Results from publication doi:10.1101/2021.09.29.462397.
These are yes or no findings as the source states them, for the method shown. Binding seen in cells or lysates may run through a third protein. Some binding calls cover weakened binding; strength is not graded here. For some of these results: Where a sequence is shown, tags or fusion partners need not be part of it.

By UniProt entry, the sequences of proteins in these tests, tags left out. Residues count along the entry.
UniProt Q13485: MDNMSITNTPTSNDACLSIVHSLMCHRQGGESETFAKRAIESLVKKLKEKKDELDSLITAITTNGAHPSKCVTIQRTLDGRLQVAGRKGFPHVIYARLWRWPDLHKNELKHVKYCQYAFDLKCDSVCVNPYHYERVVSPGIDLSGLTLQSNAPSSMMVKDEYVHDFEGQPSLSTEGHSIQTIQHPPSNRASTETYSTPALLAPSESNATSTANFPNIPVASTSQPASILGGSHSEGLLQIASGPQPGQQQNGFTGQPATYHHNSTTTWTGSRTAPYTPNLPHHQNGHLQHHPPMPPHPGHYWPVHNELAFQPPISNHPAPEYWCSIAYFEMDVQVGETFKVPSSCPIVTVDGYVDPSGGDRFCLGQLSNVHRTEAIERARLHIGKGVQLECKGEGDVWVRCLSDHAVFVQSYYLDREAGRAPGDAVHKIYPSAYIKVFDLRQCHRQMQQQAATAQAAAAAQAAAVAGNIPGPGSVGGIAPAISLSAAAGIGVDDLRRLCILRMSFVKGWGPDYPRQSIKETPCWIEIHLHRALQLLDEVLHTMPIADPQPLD
UniProt Q9GZV5: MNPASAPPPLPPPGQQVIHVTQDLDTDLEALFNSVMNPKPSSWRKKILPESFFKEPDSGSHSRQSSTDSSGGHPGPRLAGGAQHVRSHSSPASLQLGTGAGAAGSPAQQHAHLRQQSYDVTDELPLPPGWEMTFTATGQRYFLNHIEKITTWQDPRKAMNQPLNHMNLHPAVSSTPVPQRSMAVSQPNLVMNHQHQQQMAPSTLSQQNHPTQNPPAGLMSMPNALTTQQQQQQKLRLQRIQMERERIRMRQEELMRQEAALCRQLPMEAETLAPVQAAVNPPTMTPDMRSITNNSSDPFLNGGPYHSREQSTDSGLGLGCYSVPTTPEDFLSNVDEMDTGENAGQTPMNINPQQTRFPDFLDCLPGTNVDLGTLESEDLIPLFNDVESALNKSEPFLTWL
UniProt P37023, residues 22-503: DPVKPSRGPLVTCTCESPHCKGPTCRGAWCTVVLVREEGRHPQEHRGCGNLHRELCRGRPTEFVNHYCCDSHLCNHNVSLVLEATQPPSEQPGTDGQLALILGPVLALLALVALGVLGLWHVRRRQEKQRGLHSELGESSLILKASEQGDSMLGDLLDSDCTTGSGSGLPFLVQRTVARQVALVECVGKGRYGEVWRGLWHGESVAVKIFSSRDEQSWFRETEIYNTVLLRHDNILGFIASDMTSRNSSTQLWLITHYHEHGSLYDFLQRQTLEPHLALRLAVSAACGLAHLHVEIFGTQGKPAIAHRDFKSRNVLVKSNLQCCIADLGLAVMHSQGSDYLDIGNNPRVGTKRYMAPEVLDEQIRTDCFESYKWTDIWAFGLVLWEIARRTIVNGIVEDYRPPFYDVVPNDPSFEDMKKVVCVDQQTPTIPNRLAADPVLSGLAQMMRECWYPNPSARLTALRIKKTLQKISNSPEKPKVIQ
UniProt O15105: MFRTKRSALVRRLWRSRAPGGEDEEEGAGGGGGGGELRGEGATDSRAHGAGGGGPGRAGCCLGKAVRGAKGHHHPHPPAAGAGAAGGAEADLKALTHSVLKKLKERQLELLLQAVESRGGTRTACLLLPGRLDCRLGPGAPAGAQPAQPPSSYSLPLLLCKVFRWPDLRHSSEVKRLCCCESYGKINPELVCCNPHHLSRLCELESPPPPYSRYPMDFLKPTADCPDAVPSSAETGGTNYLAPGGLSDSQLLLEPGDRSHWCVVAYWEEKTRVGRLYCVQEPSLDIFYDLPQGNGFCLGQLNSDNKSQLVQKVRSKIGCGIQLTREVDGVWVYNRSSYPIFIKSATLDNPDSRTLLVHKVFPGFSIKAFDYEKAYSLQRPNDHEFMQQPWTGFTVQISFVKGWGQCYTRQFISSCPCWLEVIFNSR

T1: endoglin, endogenous (human (endogenous in HUAEC)) (UniProt P17813)
T1 sequence: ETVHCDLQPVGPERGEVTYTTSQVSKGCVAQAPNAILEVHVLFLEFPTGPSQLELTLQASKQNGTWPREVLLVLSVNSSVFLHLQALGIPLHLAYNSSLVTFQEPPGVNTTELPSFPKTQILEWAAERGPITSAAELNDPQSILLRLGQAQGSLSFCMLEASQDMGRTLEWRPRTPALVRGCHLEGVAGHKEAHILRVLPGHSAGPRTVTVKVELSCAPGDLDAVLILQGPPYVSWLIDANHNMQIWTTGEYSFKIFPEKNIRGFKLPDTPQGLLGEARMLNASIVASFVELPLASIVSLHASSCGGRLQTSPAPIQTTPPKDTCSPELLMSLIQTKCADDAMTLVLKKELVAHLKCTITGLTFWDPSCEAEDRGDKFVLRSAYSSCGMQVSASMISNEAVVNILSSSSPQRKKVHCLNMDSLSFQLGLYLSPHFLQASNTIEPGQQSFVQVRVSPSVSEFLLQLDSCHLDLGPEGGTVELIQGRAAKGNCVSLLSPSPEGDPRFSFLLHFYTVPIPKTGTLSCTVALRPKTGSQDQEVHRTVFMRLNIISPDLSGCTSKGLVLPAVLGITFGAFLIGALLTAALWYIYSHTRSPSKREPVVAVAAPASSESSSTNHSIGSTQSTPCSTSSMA

B1: protein tyrosine phosphatase non-receptor, type 14 (PTPN14), endogenous (protein, UniProt Q15678 1-1187)
chain: MPFGLKLRRTRRYNVLSKNCFVTRIRLLDSNVIECTLSVESTGQECLEAVAQRLELRETHYFGLWFLSKSQQARWVELEKPLKKHLDKFANEPLLFFGVMFYVPNVSWLQQEATRYQYYLQVKKDVLEGRLRCTLDQVIRLAGLAVQADFGDYNQFDSQDFLREYVLFPMDLALEEAVLEELTQKVAQEHKAHSGILPAEAELMYINEVERLDGFGQEIFPVKDNHGNCVHLGIFFMGIFVRNRIGRQAVIYRWNDMGNITHNKSTILVELINKEETALFHTDDIENAKYISRLFATRHKFYKQNKICTEQSNSPPPIRRQPTWSRSSLPRQQPYILPPVHVQCGEHYSETHTSQDSIFHGNEEALYCNSHNSLDLNYLNGTVTNGSVCSVHSVNSLNCSQSFIQASPVSSNLSIPGSDIMRADYIPSHRHSAIIVPSYRPTPDYETVMRQMKRGILHTDSQSQSLRNLNIINTHAYNQPEDLVYSQPEMRERHPYTVPYGPQGVYSNKLVSPSDQRNPKNNVVPSKPGASAISHTVSTPELANMQLQGSHNYSTAHMLKNYLFRPPPPYPRPRPATSTPDLASHRHKYVSGSSPDLVTRKVQLSVKTFQEDSSPVVHQSLQEVSEPLTATKHHGTVNKRHSLEVMNSMVRGMEAMTLKSLHLPMARRNTLREQGPPEEGSGSHEVPQLPQYHHKKTFSDATMLIHSSESEEEEEEAPESVPQIPMLREKMEYSAQLQAALARIPNKPPPEYPGPRKSVSNGALRQDQASLPPAMARARVLRHGPAKAISMSRTDPPAVNGASLGPSISEPDLTSVKERVKKEPVKERPVSEMFSLEDSIIEREMMIRNLEKQKMAGLEAQKRPLMLAALNGLSVARVSGREENRVDATRVPMDERFRTLKKKLEEGMVFTEYEQIPKKKANGIFSTAALPENAERSRIREVVPYEENRVELIPTKENNTGYINASHIKVVVGGAEWHYIATQGPLPHTCHDFWQMVWEQGVNVIAMVTAEEEGGRTKSHRYWPKLGSKHSSATYGKFKVTTKFRTDSVCYATTGLKVKHLLSGQERTVWHLQYTDWPDHGCPEDVQGFLSYLEEIQSVRRHTNSMLEGTKNRHPPIVVHCSAGVGRTGVLILSELMIYCLEHNEKVEVPMMLRLLREQRMFMIQTIAQYKFVYQVLIQFLQNSRLI
B2: V5-PTPN14 wild type (protein, UniProt Q15678 1-1187)
chain: B1 chain

What was measured:
[1] = target: SMAD4, endogenous (human (endogenous in HUAEC)) (UniProt Q13485); experiment: proximity ligation
[2] = target: phosphorylated (p)TAZ, endogenous (human (endogenous in HUAEC)) (UniProt Q9GZV5); experiment: co-IP
[3] = target: T1, endoglin, endogenous (human (endogenous in HUAEC)); experiment: co-IP
[4] = target: activin receptor-like kinase-1 (ALK1), endogenous (human (endogenous in HUAEC)) (UniProt P37023); experiment: co-IP
[5] = target: SMAD4, endogenous (human (endogenous in HUAEC)) (UniProt Q13485); experiment: co-IP
[6] = target: SMAD7, endogenous (human (endogenous in HUAEC)) (UniProt O15105); experiment: co-IP
FLAG-SMAD4 = FLAG-SMAD4 (UniProt Q13485); experiment: co-IP

Binder | binding [1] | binding [2] | binding [3] | binding [4] | binding [5] | binding [6] | binding (FLAG-SMAD4)
B1 | binds | binds | no binding | no binding | binds | no binding | 
B2 |  |  |  |  |  |  | binds
